# PubChem BioAssay AID2685 (National Center for Advancing Translational Sciences (NCATS), 2010)
# The list shows a part of the results. Shown are side measurements of this screen, not its main read-out; they come without a call. The list favours compounds with an active or inconclusive main result. The note in brackets gives the kind of curve behind each potency; many fits are weak.
# Assay: qHTS Assay for Lipid Storage Modulators in Drosophila S3 Cells;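 as to cell number change: cells counted by Cell Tracker Red CMTPX staining in the red channel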
# Conditions: BODIPY lipid droplet fluorescence, 18-24 h; for cell number change: measured here: cell count max response, cells fed with added oleic acid
# Method in brief: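 Drosophila S3 cells got compounds at several concentrations plus oleic acid (400 uM solution). Laser-scanning cytometry with 488 nm excitation read lipid droplets at 500-530 nm and cells at 575-640 nm. Percent activity was relative to 20 uM Triacsin C.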
# [1] = measured here: lipid fluorescence (Fed channel) AC50, cells fed with added oleic acid
# [2] = measured here: cell number channel AC50, cells fed with added oleic acid
smiles,measurement,setting,value
Cc1oc(C(C)(C)C)cc1C(=O)N1CCCC1C(=O)O (stereo not given),cell number change,,12.2%
same,AC50,[1],"0.82 µM [rising, full curve, poor fit]"
Cc1cc(C)cc(NC(=O)c2ccc(S(=O)(=O)N(C)CC3CCCO3)cc2)c1 (stereo not given),cell number change,,6.24%
same,AC50,[1],"16.4 µM [falling, single point]"
CSc1nc2nc3c(cc2c(=O)[nH]1)C(O)Oc1ccc(C)cc1-3 (stereo not given),cell number change,,40.6%
same,AC50,[2],"29.1 µM [rising, single point]"
COc1ccccc1Nc1nc(N)nc(CSc2nncn2C)n1,AC50,[2],"3.26 µM [falling, single point]"
same,AC50,[1],"4.11 µM [falling, single point]"
Cc1c(Cl)c([N+](=O)[O-])nn1CC(=O)NCC1CCCO1 (stereo not given),cell number change,,18.3%
Cc1cccc(CN2C(=O)N/C(=C/c3ccc(C)s3)C2=O)c1,cell number change,,22.9%
same,AC50,[1],"1.46 µM [rising, partial curve]"
CCN(CC)S(=O)(=O)c1ccc(-c2nnc(SCC(=O)Nc3cc(OC)cc(OC)c3)o2)cc1,cell number change,,46.7%
same,AC50,[2],"20.6 µM [rising, single point]"
Cc1ccc(N(Cc2cc(=O)[nH]c3ccccc23)C(=O)c2ccco2)cc1,cell number change,,-0.144%
CCOC(=O)Cc1ncccc1C(=O)Nc1ccc(OC(F)(F)F)cc1,cell number change,,18%
Cc1nn2c(=O)cc(COC(=O)c3c(F)cccc3Cl)nc2s1,cell number change,,-34.4%
same,AC50,[2],"32.6 µM [falling, single point]"
same,AC50,[1],"29.1 µM [falling, single point]"
CSc1nc2c(c(=O)n1Cc1ccccc1)SC(C)C2 (stereo not given),cell number change,,141%
COc1ccc(S(=O)(=O)N(CCc2ccccc2)CC(=O)NCCCO)cc1,cell number change,,-0.521%
CCOC(=O)C1=CN(C)C=C(C(=O)OCC)C1c1ccsc1,cell number change,,-86.7%
same,AC50,[2],"9.2 µM [falling, partial curve]"
same,AC50,[1],"14.6 µM [falling, partial curve]"
CC(=O)c1ccc(OCc2cc(C(=O)N(C)CCOc3ccc(C)cc3)no2)cc1,cell number change,,-12%
CCOc1ccc(NC(=O)Cn2cc(C(=O)c3ccco3)c3ccccc32)cc1,cell number change,,-9.37%
same,AC50,[2],"1.03 µM [falling, partial curve]"
same,AC50,[1],"2.06 µM [falling, partial curve]"
COc1ccc(NC(=O)CSc2nc(NS(=O)(=O)c3ccccc3)cc(=O)[nH]2)cc1,cell number change,,-10.1%
same,AC50,[1],"4.11 µM [falling, partial curve, poor fit]"
Cc1ccc2c(c1)=C(c1ccccc1)N(O)CC(=O)N=2,cell number change,,22.6%
Cc1ccccc1OCc1nnc(SCC(=O)Nc2ccc3c(c2)OCO3)n1C,cell number change,,-4.24%
same,AC50,[1],"18.4 µM [rising, partial curve, poor fit]"
C#CCn1c(=NC(=O)c2cc(Cl)sc2Cl)sc2cc(S(N)(=O)=O)ccc21,cell number change,,23.6%
same,AC50,[2],"2.91 µM [rising, single point]"
CCOC(=O)Nc1ccc(S(=O)(=O)Nn2cnnc2)cc1,cell number change,,5.18%
same,AC50,[1],"29.1 µM [falling, single point]"
OC(COc1ccc(Br)cc1)Cn1ccnc1 (stereo not given),cell number change,,-14.9%
same,AC50,[2],"0.82 µM [falling, single point]"
c1ccc2c(c1)-c1cccc3c1c-2cc1ccccc13,cell number change,,-28.5%
same,AC50,[1],"0.103 µM [rising, single point]"
COc1cc(/C=C(\C#N)c2nc3ccccc3o2)ccc1O,cell number change,,-37.6%
same,AC50,[2],"18.4 µM [falling, single point]"
same,AC50,[1],"29.1 µM [falling, single point]"
CC(C)CNC(=O)Cn1c(=O)c2c(ncn2CC(C)C)n(Cc2ccccc2)c1=O,cell number change,,-11.5%
same,AC50,[1],"0.13 µM [falling, full curve, poor fit]"
Fc1ccc(CNc2nc(-c3ccccc3)nc3ccccc23)cc1,cell number change,,-4.03%
same,AC50,[2],"0.82 µM [rising, full curve, poor fit]"
same,AC50,[1],"0.58 µM [rising, full curve]"
COc1ccc(-c2[nH]nc3c2C(c2ccncc2)C(C#N)=C(N)O3)cc1 (stereo not given),AC50,[2],"2.31 µM [rising, partial curve]"
same,AC50,[1],"2.31 µM [rising, partial curve]"
O=C(CNc1ccccc1)N/N=C/c1ccc([N+](=O)[O-])o1,cell number change,,-15.6%
same,AC50,[1],"23.1 µM [falling, partial curve]"
O=C(COc1ccc([N+](=O)[O-])cc1)Nc1ccc2[nH]c(=O)[nH]c2c1,cell number change,,-7.84%
same,AC50,[1],"18.4 µM [falling, partial curve]"
Cc1ccc(NC(=O)CS(=O)CC(=O)N(c2ccccc2)C(C)C(=O)NC2CCCC2)cc1 (stereo not given),cell number change,,36.5%
same,AC50,[2],"3.26 µM [rising, full curve, poor fit]"
same,AC50,[1],"18.4 µM [rising, partial curve]"
CC(=O)Nc1cccc(NC(=O)CCCC2CCCCC2)c1,cell number change,,20.5%
same,AC50,[1],"29.1 µM [rising, single point]"
Cc1ccc(S(=O)(=O)N2CCCCC2CCNC(=O)C(=O)NCc2cccnc2)cc1 (stereo not given),cell number change,,-39%
same,AC50,[2],"29.1 µM [falling, single point]"
same,AC50,[1],"29.1 µM [falling, partial curve, poor fit]"
COc1ccc(NS(=O)(=O)c2cc(NC(=O)/C=C/c3cc(OC)ccc3OC)ccc2N2CCCCC2)cc1,AC50,[2],"0.411 µM [rising, partial curve, poor fit]"
CCn1ncc(Cl)c1C(=O)Nc1ccc2c(c1)CCC2,cell number change,,-53%
CCC(C)NC(=O)CCc1c(C)nc2nc(-c3cc(OC)cc(OC)c3)nn2c1C (stereo not given),cell number change,,5.57%
same,AC50,[1],"29.1 µM [rising, single point]"
O=C(CCNC(=O)c1ccc([N+](=O)[O-])cc1)NC1CCCCC1,cell number change,,-30%
same,AC50,[2],"0.651 µM [falling, full curve, poor fit]"
O=C(NC1CC1)C(Cc1ccccc1)NS(=O)(=O)c1ccccc1F (stereo not given),AC50,[2],"6.51 µM [falling, single point]"
CCOC(OCC)c1cn(Cc2ccc(C(=O)c3ccccc3)cc2)nn1,cell number change,,12.6%
same,AC50,[1],"0.259 µM [rising, full curve, poor fit]"
O=C(COC(=O)C1CC1)NC(=O)NCc1ccccc1,cell number change,,-3.29%
same,AC50,[1],"0.103 µM [falling, partial curve, poor fit]"
CNS(=O)(=O)c1ccc(NS(=O)(=O)c2ccccc2F)cc1,cell number change,,35.9%
O=C(N/N=C\c1ccccc1F)c1ccc(-c2ccccc2)cc1,cell number change,,35.3%
same,AC50,[2],"29.1 µM [rising, single point]"
same,AC50,[1],"0.00461 µM [falling, full curve, poor fit]"
O=C(O)CNC1=NCCCCC1,cell number change,,-18.4%
same,AC50,[1],"0.206 µM [rising, full curve]"
Cc1cccc(NC2SC(=O)N(c3ccccc3)C2=O)c1 (stereo not given),cell number change,,14.3%
same,AC50,[1],"6.51 µM [rising, partial curve, poor fit]"
O=C(N1CCCC1)C12CCC3CC(CC(C3)C1)C2,cell number change,,-8.69%
same,AC50,[2],"0.461 µM [falling, full curve]"
same,AC50,[1],"0.731 µM [falling, full curve]"
CCOc1ccc(NC(=O)CSc2nc3ccsc3c(=O)n2CCC(=O)O)cc1,cell number change,,1.79%
O=C(CSc1nc(C2CC2)nc2ccccc12)N1CCc2ccccc2C1,cell number change,,-18.9%
same,AC50,[1],"4.11 µM [falling, single point]"
COCCNC(=O)CS(=O)Cc1nc(-c2ccccc2C)oc1C (stereo not given),cell number change,,7.86%
CCc1c(C)nc2cc(-c3ccc(OC)c(OC)c3)nn2c1NCC1CC1,cell number change,,-168%
same,AC50,[2],"11.6 µM [falling, single point]"
same,AC50,[1],"11.6 µM [falling, single point]"
COc1ccccc1NC(=O)CSc1nnc(-c2ccoc2C)o1,cell number change,,12.8%
same,AC50,[1],"0.92 µM [rising, full curve, poor fit]"
CCOc1ccc(N(CC(=O)NCCSCc2ccccc2)S(=O)(=O)c2ccccc2)cc1,cell number change,,31.1%
same,AC50,[1],"20.6 µM [falling, single point]"
CCC(C)(C)n1nnnc1C(c1ccccc1)N1CCc2ccccc2C1 (stereo not given),AC50,[1],"2.31 µM [rising, partial curve, poor fit]"
COc1ccc2[nH]c(=O)c(CN(Cc3cccs3)Cc3nnnn3C(C)(C)C)cc2c1,AC50,[2],"3.26 µM [rising, single point]"
same,AC50,[1],"6.51 µM [rising, single point]"
CCCn1c(SCC(=O)N2CCCc3ccccc32)nnc1-c1ccco1,cell number change,,5.62%
same,AC50,[1],"29.1 µM [rising, single point]"
CCOc1cc(-c2nc(-c3ccc(C)nc3OCC)no2)cc(OCC)c1OCC,AC50,[2],"1.64 µM [rising, partial curve]"
CC(C)(C)NC(=O)CCN(/N=C/c1ccccc1F)C1=NS(=O)(=O)c2ccccc21,cell number change,,-14%
same,AC50,[1],"18.4 µM [falling, single point]"
CCCCNC(=O)C1=C(N)C(C(=O)Nc2ccc(C)c(S(=O)(=O)N3CCCCC3)c2)SC1=Nc1ccc(C)cc1C (stereo not given),cell number change,,-22%
same,AC50,[2],"0.82 µM [rising, full curve]"
same,AC50,[1],"1.84 µM [rising, partial curve]"
CCCCCOc1ccc(C(=O)NCCC(=O)NCCCC(=O)OCC)cc1,cell number change,,-52.5%
same,AC50,[2],"23.1 µM [falling, partial curve]"
Cc1nn(CCCC(=O)N2CCc3ccccc3C2)c(=O)c2cc3sccc3n12,cell number change,,-16.9%
CN1CCN(CC(=O)Nc2ccc(OCc3ccccc3)cc2)CC1,cell number change,,-35.3%
same,AC50,[2],"0.231 µM [falling, full curve, poor fit]"
same,AC50,[1],"0.82 µM [falling, full curve, poor fit]"
Cc1cc(C)c2c(CN3CCOCC3)cc(=O)oc2c1C,cell number change,,37.5%
same,AC50,[2],"8.2 µM [rising, partial curve, poor fit]"
same,AC50,[1],"5.8 µM [rising, partial curve]"

# Quoted at random: 3 entries already listed
smiles,measurement,setting,value
C#CCn1c(=NC(=O)c2cc(Cl)sc2Cl)sc2cc(S(N)(=O)=O)ccc21,cell number change,,23.6%
O=C(N1CCCC1)C12CCC3CC(CC(C3)C1)C2,AC50,[2],"0.461 µM [falling, full curve]"
COc1ccccc1Nc1nc(N)nc(CSc2nncn2C)n1,AC50,[2],"3.26 µM [falling, single point]"

# Reformatted: results already given.
smiles	measurement	setting	value
Cc1ccc2c(c1)=C(c1ccccc1)N(O)CC(=O)N=2	cell number change		22.6%
Cc1ccccc1OCc1nnc(SCC(=O)Nc2ccc3c(c2)OCO3)n1C	cell number change		-4.24%

# In a second layout: entries from further up
smiles | measurement | setting | value
Cc1oc(C(C)(C)C)cc1C(=O)N1CCCC1C(=O)O (stereo not given) | cell number change |  | 12.2%
same | AC50 | [1] | 0.82 µM [rising, full curve, poor fit]
